The source of these data is PubChem BioAssay AID1347431 (National Center for Advancing Translational Sciences (NCATS), 2020).

Among all 1,200 compounds or so, fewer than 10 were called active. Calls follow the shape of the dose curve; as a rule, active = well fitted curve in the direction sought with a large enough effect; inconclusive = small, poorly fitted or top-dose-only effect, or another doubt; inactive = no such curve, though single readings can be large or run the other way. The list shows a part of the results.

A short description of the assay: Confirmatory qHTS assay for inhibitors of Activation Induced Cytidine Deaminase (AID): UDG signals. Also: 0% is about no effect. To be noted: UDG coupled enzyme activity counter-screen; at 115 µM (top of the series) unless noted. In outline: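 Fluorescence at 560 nm excitation/665 nm emission reports UDG activity, read after NaOH quench of a 4 h room-temperature reaction of DJC20/DJC23 substrates with AID (1 uM, 4/3x) and UDG (2 U/mL, 4/3x); compounds at 7.32 nM - 114 uM final, preincubated 10 min.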
Take `Cc1nnc(SCC(=O)NCc2ccccc2F)c2nn(-c3ccc(Cl)cc3)c(C)c12`: the activity change, negative = inhibition was inactive: 4.35%.
With `COCCc1nn2c(=O)cc(COC(=O)c3ccc(C(C)(C)C)cc3)nc2s1`, the activity change, negative = inhibition is inactive: 6.29%.
Regarding `O=C(c1ccc2c(Cl)c3c(nc2c1)CCCC3)N1CCN(c2cccc(Cl)c2)CC1`, the activity change, negative = inhibition was inactive: 3.09%.
On to `Cc1ccc(-n2ncc(C(=O)N3CCN(Cc4ccccc4)CC3)c2C2CCN(C(=O)OC(C)(C)C)CC2)c(C)c1`, for which the activity change, negative = inhibition is inactive: -9.77%.
With `COc1ccc(CCNC(=O)CS(=O)Cc2nc(-c3ccc(C)cc3)oc2C)c(OC)c1` (stereo not drawn), the activity change, negative = inhibition is inactive: -3.01%.
As for `Cc1ccc(Cl)cc1N1CCN(C(=O)Cn2cnc3nc4c(cc3c2=O)CCCC4)CC1`, the activity change, negative = inhibition is inactive: -9.53%.
As for `COc1ccc(C(=O)N(Cc2ccc(N(C)C)cc2)Cc2ccco2)cc1Cl`, the figure is inactive: -6.58%; as for `COc1cccc(Cn2c(=O)n(CC3CCC(C(=O)N4CCCCC4)CC3)c(=O)c3sccc32)c1` (stereo not drawn), inactive: -4.73%.
As for `CCOC(=O)C1CCCN(c2nc3c(S(=O)(=O)c4ccc(CC)cc4)nnn3c3ccc(Cl)cc23)C1` (stereo not drawn), the activity change, negative = inhibition was inactive: 1.14%.
For the compound `CCN(CC)C(=O)c1ccc2c(c1)N(Cc1ccc(C(F)(F)F)cc1)C(=O)c1ccccc1S2`, the activity change, negative = inhibition is inactive: -11.1%.
Regarding `CC(=O)N1CCc2c(sc3c2c(=O)n(Cc2ccccc2)c(=O)n3Cc2ccccc2F)C1`, the activity change, negative = inhibition was inactive: -1.57%.
On to `O=C(Nc1cccc(Cl)c1)C1CCCN(c2nn3cc(-c4ccc(F)cc4)nc3s2)C1` (stereo not drawn), for which the activity change, negative = inhibition is inactive: -0.847%.
As to `CCOc1ccc(C(=O)c2cn(CC(=O)Nc3ccc4c(c3)OCO4)c3ccc(OC)cc3c2=O)cc1`, the activity change, negative = inhibition was inactive: -6.11%.
As for `Cc1nc2nc(NC(=O)c3ccc(C(C)(C)C)cc3)[nH]n2c(=O)c1Cl`, the figure is inactive: 2.15%; as for `COc1ccccc1CNC(=O)CSc1nc2nc(C)c(Cc3ccccc3Cl)c(C)n2n1`, inactive: 3.15%.
On to `CCOc1ccc(CCNC(=O)c2nc(-c3cccc(F)c3)n3c2CCCCC3)cc1OCC`, for which the activity change, negative = inhibition is inactive: -9.3%.
Turning to `Cc1ccc(Nc2c(-c3ccc(C)cc3)nc3cnccn23)cc1`, the activity change, negative = inhibition was inactive: -5.89%.
In the case of `C=Cc1ccc(CSc2nc(-c3ccc(OC)cc3)nc3c2Cc2c(CO)cnc(C)c2O3)cc1`, the activity change, negative = inhibition was inactive: -9.8%.
As for `O=C(Cc1ccc(F)cc1)N1CCC(c2nc3c(nnn3Cc3ccc(Cl)cc3)c(=O)[nH]2)CC1`, the activity change, negative = inhibition is inactive: 1.36%.
In the case of `CCc1ccc(CNC(=O)c2ccc(CSc3nc4ccncc4n3Cc3ccccc3)cc2)cc1` it was inactive: -3.79%; in that of `Cc1ccn2c(Nc3ccccc3C)c(-c3ccccn3)nc2c1`, inactive: -21.6%; in that of `Cc1ccc(C2C=C(c3ccc(Cl)cc3)Nc3nc(NS(=O)(=O)c4ccccc4)nn32)cc1` (stereo not drawn), inactive: 2.47%.
Regarding `C=CCc1ccccc1OCCSc1nc(-c2ccc(C(C)(C)C)cc2)nc2cc(=O)[nH]n12`, the activity change, negative = inhibition was inactive: -0.601%.
On to `CCOC(=O)c1cccc(NC(=O)c2oc3c(c2C)-c2[nH]ncc2CC3)c1`, for which the activity change, negative = inhibition is inactive: -8.63%.
For `O=C(COc1ccccc1)NCc1ccc2c(c1)CCN2C(=O)c1ccc(F)cc1`, the activity change, negative = inhibition was inactive: 1.55%.
For the compound `Cc1cccc(CNC(=O)c2oc3c(c2C)-c2nn(Cc4ccccc4Cl)cc2CC3)c1`, the activity change, negative = inhibition is inactive: 6.73%.
Regarding `Cc1ccc(Cl)cc1NC(=O)c1oc2c(c1C)-c1[nH]ncc1CC2`, the activity change, negative = inhibition was inactive: -4.49%.
Take `CCN(CC)c1cc(C)c2cc(NC(=O)c3ccc(OC)c(OC)c3)ccc2n1`: the activity change, negative = inhibition was inactive: -11%.
Take `COc1ccc(Cl)cc1NC(=O)CSc1nc(=O)n(Cc2ccco2)c2c1CCC2`: the activity change, negative = inhibition was inactive: -1.64%.
For the compound `Cc1cc(Nc2cccc(C(F)(F)F)c2)nc2ccc(NC(=O)Cc3ccc(Cl)cc3)cc12`, the activity change, negative = inhibition is inactive: -2.34%.
Regarding `C[N+](C)(CCCCCC[N+](C)(C)CCCN1C(=O)c2cccc3cccc(c23)C1=O)CCCN1C(=O)c2cccc3cccc(c23)C1=O`, the activity change, negative = inhibition is inactive: 15%.
For `CC1(C)CC(=O)c2cc(C#N)c(=O)n(-c3ccc(Cl)cc3)c2C1`, the activity change, negative = inhibition was inactive: 2.6%.
On to `Cc1nc2c(C(=O)NCc3ccccc3)cnn2c(C)c1Cc1ccc(F)cc1`, for which the activity change, negative = inhibition is inactive: -4.98%.
Take `CCN1C(=O)c2ccccc2Sc2ccc(NC(=O)COc3ccc(Cl)cc3)cc21`: the activity change, negative = inhibition is inactive: -5.41%.
In the case of `CCCn1c(SCc2nc(-c3ccccc3C)no2)nnc1-c1ccc(Cl)cc1` it was inactive: -20.3%.
With `Cc1cc(C)cc(Nc2nc3cc(Cl)c(Cl)cc3nc2-n2nc(C)cc2C)c1`, the activity change, negative = inhibition is inactive: 4.6%.
Turning to `COc1ccc(-c2coc3c2c(C)cc2oc(=O)c(CC(=O)O)c(C)c23)cc1`, the activity change, negative = inhibition was inactive: -15.3%.
As for `COc1cc2c(cc1OC)C(COc1ccc(F)cc1)N(C(=O)c1cccc(F)c1)CC2` (stereo not drawn), the figure is inactive: -11.3%.
Turning to `Cc1cc(C)cc(NC(=O)Cn2nnc(C(=O)NCc3ccco3)c2N)c1`, the activity change, negative = inhibition was inactive: -4.65%.
Consider `Cc1cccc(NC(=O)c2oc3c(c2C)-c2[nH]ncc2CC3)c1C`, for which the activity change, negative = inhibition was inactive: 4.38%.
`Cc1cccc(C)c1-n1ncc(C(=O)NCc2ccc3c(c2)OCO3)c1C1CCN(C(=O)OC(C)(C)C)CC1`: the activity change, negative = inhibition is inactive: -15.8%.
As to `COc1ccc(C(=O)NCCn2cc(SCC(=O)Nc3ccc(F)cc3)c3ccccc32)cc1`, the activity change, negative = inhibition was inactive: -6.79%.
As to `CCn1c(=O)cc(OCC(=O)N2CCN(c3cccc(Cl)c3)CC2)c2ccccc21`, the activity change, negative = inhibition is inactive: 5.57%.
Turning to `O=C(Nc1cccc(C(=O)Nc2ccc(S(=O)(=O)O)c3cc(S(=O)(=O)O)cc(S(=O)(=O)O)c23)c1)Nc1cccc(C(=O)Nc2ccc(S(=O)(=O)O)c3cc(S(=O)(=O)O)cc(S(=O)(=O)O)c23)c1`, the activity change, negative = inhibition was inactive: 2.4%.
On to `CCOc1ccccc1NC(=O)CSC1=Nc2ccccc2C2=NC(CC(=O)NCc3ccc4c(c3)OCO4)C(=O)N12` (stereo not drawn), for which the activity change, negative = inhibition is inactive: 1.12%.
On to `Cc1nn2c(=O)cc(COC(=O)C(c3ccccc3)c3ccccc3)nc2s1`, for which the activity change, negative = inhibition was inactive: -8.64%.
Regarding `CCc1ccc(CNC(=O)CCCN2C(=O)c3cccnc3Oc3ccc(Cl)cc32)cc1`, the activity change, negative = inhibition is inactive: -12.7%.
Take `Cc1cc(OCCCSc2nc(-c3ccc(C(C)(C)C)cc3)nc3cc(=O)[nH]n23)ccc1Cl`: the activity change, negative = inhibition is inactive: -3.24%.
As to `CC(C)(C)c1ccc(-c2nc(SCCCOc3ccccc3)n3[nH]c(=O)cc3n2)cc1`, the activity change, negative = inhibition was inactive: -2.37%.
Take `CCCCN(CCCC)CCNC(=O)c1cn(CC)c2ccc(S(=O)(=O)N(C)C3CCCCC3)cc2c1=O`: the activity change, negative = inhibition is inactive: -10.3%.
As for `CCN(CC)c1cc(C)c2cc(NC(=O)c3cccc(OC)c3)ccc2n1`, the activity change, negative = inhibition was inactive: -4.41%.
Take `CCOc1ccc(CNCc2c(C(=O)O)n(Cc3ccccc3F)c3cc(OC)ccc23)cc1`: the activity change, negative = inhibition was inactive: 4.98%.
Consider `Cc1ccc(/C=C/c2onc(C)c2S(=O)(=O)N2CCC(C(=O)N3CCC(N(C)C(C)C)CC3)CC2)cc1`, for which the activity change, negative = inhibition is inactive: -9.47%.
For the compound `CC1CCCN(CCCNC(=O)c2ccc3c(c2)N(Cc2ccccc2F)C(=O)c2ccccc2S3(=O)=O)C1` (stereo not drawn), the activity change, negative = inhibition is inactive: -12.7%.
Take `COCCCNC(=O)c1oc2c(c1C)-c1nn(Cc3cccc(Cl)c3)cc1CC2`: the activity change, negative = inhibition was inactive: -14.6%.
As for `CCN(CCCNC(=O)c1cc2c(=O)n(C)c3ccccc3c2s1)Cc1ccccc1`, the figure is inactive: -3.53%; as for `Cc1ccc2c(c1)C(c1ccc(F)cc1)N(C(=O)COc1ccc(Cl)cc1Cl)CC(=O)N2` (stereo not drawn), inactive: -0.309%.
On to `Cc1[nH]c2ccccc2c1C1(O)C(=O)N(Cc2ccccc2Cl)c2ccccc21` (stereo not drawn), for which the activity change, negative = inhibition was inactive: -8.54%.
On to `Cc1nc2nc(SCC(=O)NC3CCC(C)CC3)nn2c(C)c1Cc1ccccc1` (stereo not drawn), for which the activity change, negative = inhibition was inactive: -4.48%.
Consider `Cc1ccc(-c2cn(-c3cccc(Cl)c3)c(S(=O)(=O)CC(=O)Nc3cccc(C)c3)n2)cc1`, for which the activity change, negative = inhibition was inactive: -10.9%.
For `CCn1cc(C(=O)NCCCN2CCCC(C)C2)c(=O)c2cc(S(=O)(=O)N(C)C3CCCCC3)ccc21` (stereo not drawn), the activity change, negative = inhibition was inactive: -11.7%.
In the case of `CC1=Nc2cc(C(=O)N3CCC(C)CC3)ccc2Sc2ccc(Cl)cc21` it was inactive: -3.16%; in that of `CCn1cc(C(=O)NCCCOC)c(=O)c2cc(S(=O)(=O)N3CCc4ccccc4C3)ccc21`, inactive: -9.97%.
As for `CN(C(=O)c1ccc2c(Cl)c3c(nc2c1)CCC3)c1ccccc1F`, the activity change, negative = inhibition is inactive: -8.37%.
In the case of `COc1ccccc1C(=O)Nc1ccc(C(=O)OCc2cc(=O)n3nc(C)sc3n2)cc1` it was inactive: -4.95%; in that of `COc1ccccc1Cn1cc(C(=O)c2ccccc2)c(=O)c2cc(OC)c(OC)cc21`, inactive: -10.3%.
For the compound `CC1CCCCN1CCNC(=O)c1ccc(Cn2c(SCc3ccccc3)nc3cccnc32)cc1` (stereo not drawn), the activity change, negative = inhibition was inactive: -1.41%.
In the case of `COc1ccccc1C(=O)Nc1nnc(SCc2cc(=O)c3ccccc3[nH]2)s1` it was inactive: 0.423%; in that of `C=Cc1ccc(CN2C(=O)N(c3ccc(C)c(C)c3)S(=O)(=O)c3ccccc32)cc1`, inactive: -4.6%; in that of `CCc1ccc(C(c2ccccc2)c2c(C)[nH]c3ccccc23)s1` (stereo not drawn), inactive: -1.17%.
With `CCc1ccccc1NC(=O)CN(c1ccccc1OC)S(=O)(=O)c1ccc(C)cc1`, the activity change, negative = inhibition is inactive: -3.37%.
`Cc1ccc(C)c(N2CCN(C(=O)c3cc4ccc5cccnc5c4[nH]3)CC2)c1`: the activity change, negative = inhibition is inactive: -15.2%.
As for `O=C(CC1N=C2c3ccccc3N=C(SCc3ccc(Cl)cc3)N2C1=O)NCCc1ccccc1` (stereo not drawn), the figure is inactive: 4.8%.
As for `CC(=O)N1CCc2c(sc3c2c(=O)n(CCc2ccccc2)c(=O)n3Cc2ccc(F)cc2)C1`, the activity change, negative = inhibition is inactive: -4.25%.
As for `CCOC(=O)c1ccccc1NC(=O)N(Cc1ccc(CC)cc1)Cc1cn[nH]c1-c1ccc(OC)cc1`, the figure is inactive: -10.9%; as for `Cc1cccc(CN2CCC(CNc3ncnc4onc(-c5ccc(Cl)cc5)c34)CC2)c1`, inactive: -4.32%.
Consider `Cc1ccccc1NC(=O)c1ccc(N(Cc2ccccc2)S(C)(=O)=O)cc1`, for which the activity change, negative = inhibition is inactive: 4.85%.
On to `COc1ccc(CCN2CCC(CNC(=O)c3cnn(-c4cccc(Cl)c4)c3C3CCN(C(=O)OC(C)(C)C)CC3)CC2)cc1`, for which the activity change, negative = inhibition is inactive: -5.53%.
